These are yes or no findings as the source states them, for the method shown. Binding seen in cells or lysates may run through a third protein. Here binding means that the protein was enriched with, or labelled near, the bait; the list need not be complete. For some of these results: No binding means not detected with the bait. Sequences can lack the tags named with a protein.
What was measured:
[1] = target: T1, EDS1-ZZ-TEV-FLAG (Arabidopsis thaliana) (UniProt Q9SU72); experiment: proximity labelling; TurboID-based proximity labelling in N. benthamiana; EDS1-ZZ-TEV-FLAG and SAG101-3FLAG expressed with ADR1-L1-HA-TurboID (Supplemental Figure S5)
T1 sequence: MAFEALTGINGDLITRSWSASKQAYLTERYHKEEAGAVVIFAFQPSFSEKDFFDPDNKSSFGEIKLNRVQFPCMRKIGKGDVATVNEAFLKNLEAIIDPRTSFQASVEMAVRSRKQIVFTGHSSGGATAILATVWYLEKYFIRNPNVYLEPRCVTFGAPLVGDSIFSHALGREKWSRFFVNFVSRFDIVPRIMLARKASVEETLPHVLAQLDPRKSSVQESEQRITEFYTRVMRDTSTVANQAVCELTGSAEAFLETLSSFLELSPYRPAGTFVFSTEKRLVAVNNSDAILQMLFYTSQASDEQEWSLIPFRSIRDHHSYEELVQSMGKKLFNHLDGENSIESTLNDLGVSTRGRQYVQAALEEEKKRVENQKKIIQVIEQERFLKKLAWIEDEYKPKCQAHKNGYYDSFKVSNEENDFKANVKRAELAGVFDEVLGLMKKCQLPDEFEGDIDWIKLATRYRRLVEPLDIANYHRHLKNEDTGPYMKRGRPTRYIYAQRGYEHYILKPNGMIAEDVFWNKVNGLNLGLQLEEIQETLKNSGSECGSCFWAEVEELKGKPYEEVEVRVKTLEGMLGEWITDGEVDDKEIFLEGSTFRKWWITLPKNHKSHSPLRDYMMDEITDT

[2] = target: T2, SAG101-3FLAG (Arabidopsis thaliana) (UniProt Q4F883); experiment: as above
T2 sequence: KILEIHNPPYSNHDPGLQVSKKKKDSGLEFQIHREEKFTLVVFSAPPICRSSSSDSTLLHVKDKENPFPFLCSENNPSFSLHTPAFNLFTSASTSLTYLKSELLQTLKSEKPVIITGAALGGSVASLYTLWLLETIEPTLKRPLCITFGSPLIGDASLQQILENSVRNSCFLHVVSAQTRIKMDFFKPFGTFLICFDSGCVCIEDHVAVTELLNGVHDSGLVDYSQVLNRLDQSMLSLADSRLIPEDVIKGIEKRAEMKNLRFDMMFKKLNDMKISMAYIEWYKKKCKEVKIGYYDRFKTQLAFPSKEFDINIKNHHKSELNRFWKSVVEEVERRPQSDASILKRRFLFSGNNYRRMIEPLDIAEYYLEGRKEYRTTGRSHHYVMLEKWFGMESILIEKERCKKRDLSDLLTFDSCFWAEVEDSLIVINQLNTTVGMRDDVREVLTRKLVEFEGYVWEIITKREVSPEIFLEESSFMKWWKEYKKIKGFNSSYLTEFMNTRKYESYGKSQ

[3] = target: T1, EDS1-ZZ-TEV-FLAG (Arabidopsis thaliana); experiment: proximity labelling; TurboID-based proximity labelling in N. benthamiana; EDS1-ZZ-TEV-FLAG and PAD4-ZZ-TEV-FLAG co-expressed with ADR1-L1-HA-TurboID, without or with RBA1 (or NADase-dead RBA1 E86A) pre-treatment; IP with anti-FLAG beads, biotinylated proteins detected with Streptavidin-HRP
[4] = target: T3, PAD4-ZZ-TEV-FLAG (Arabidopsis thaliana) (UniProt Q9S745); experiment: as above
T3 sequence: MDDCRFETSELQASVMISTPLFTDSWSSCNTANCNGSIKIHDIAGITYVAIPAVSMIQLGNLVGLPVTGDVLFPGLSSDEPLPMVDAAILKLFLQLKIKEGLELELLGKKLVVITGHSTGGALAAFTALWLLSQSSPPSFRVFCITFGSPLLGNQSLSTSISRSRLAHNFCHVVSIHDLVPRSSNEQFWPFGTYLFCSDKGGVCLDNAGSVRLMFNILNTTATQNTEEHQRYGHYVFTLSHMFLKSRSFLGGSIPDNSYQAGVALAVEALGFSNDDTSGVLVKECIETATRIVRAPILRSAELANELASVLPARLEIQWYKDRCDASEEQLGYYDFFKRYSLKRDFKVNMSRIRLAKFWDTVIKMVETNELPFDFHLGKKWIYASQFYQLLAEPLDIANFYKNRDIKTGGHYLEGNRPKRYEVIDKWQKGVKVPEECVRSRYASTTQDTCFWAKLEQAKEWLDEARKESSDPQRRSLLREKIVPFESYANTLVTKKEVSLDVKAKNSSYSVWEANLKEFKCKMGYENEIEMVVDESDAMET

Substance: ADR1-L1-HA-TurboID (Arabidopsis thaliana) (receptor)
- binding [1]: binds
- binding [2]: no binding
- binding [3]: binds
- binding [4]: binds
